Active and inactive are the calls of the source. The rule behind the calls is not given here.
Test system: in vivo angiogenesis, blood vessel count
Assay: reduction of blood vessel formation in vivo – HTS, in vivo study (AID 732);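 note: zebrafish embryos dosed at one day post fertilization; 0% = reference inhibitor and 100% = plate mean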
Settings: hits give low values;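 tested at 30 µM in the well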

## CN1C2CCC1CC(OC(=O)C(O)c1ccccc1)C2 (stereo unspecified)
  vessel count % control: inactive: 108%

Source: PubChem BioAssay AID732 (Emory University Molecular Libraries Screening Center, 2007)
